In paper PMC7429845:
Results are given in words; binding and its absence hold for the method and conditions named. In cells and extracts the contact can be indirect. Some results given as binding are weak or reduced against the parent protein; the word gives no strength.

Sequences of proteins named here, by UniProt entry; tags and fusion partners are left off. Residues count along the entry.
UniProt O14763, residues 56-440: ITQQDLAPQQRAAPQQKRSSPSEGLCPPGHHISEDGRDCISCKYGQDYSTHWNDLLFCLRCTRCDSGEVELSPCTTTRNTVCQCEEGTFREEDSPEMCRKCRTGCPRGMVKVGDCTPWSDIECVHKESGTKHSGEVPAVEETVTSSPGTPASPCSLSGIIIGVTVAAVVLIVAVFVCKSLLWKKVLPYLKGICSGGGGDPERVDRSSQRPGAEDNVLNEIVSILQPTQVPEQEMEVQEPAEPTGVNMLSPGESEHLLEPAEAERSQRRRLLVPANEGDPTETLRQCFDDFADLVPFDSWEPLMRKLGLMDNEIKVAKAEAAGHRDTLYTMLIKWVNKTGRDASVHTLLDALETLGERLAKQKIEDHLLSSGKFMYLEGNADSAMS
UniProt Q13616: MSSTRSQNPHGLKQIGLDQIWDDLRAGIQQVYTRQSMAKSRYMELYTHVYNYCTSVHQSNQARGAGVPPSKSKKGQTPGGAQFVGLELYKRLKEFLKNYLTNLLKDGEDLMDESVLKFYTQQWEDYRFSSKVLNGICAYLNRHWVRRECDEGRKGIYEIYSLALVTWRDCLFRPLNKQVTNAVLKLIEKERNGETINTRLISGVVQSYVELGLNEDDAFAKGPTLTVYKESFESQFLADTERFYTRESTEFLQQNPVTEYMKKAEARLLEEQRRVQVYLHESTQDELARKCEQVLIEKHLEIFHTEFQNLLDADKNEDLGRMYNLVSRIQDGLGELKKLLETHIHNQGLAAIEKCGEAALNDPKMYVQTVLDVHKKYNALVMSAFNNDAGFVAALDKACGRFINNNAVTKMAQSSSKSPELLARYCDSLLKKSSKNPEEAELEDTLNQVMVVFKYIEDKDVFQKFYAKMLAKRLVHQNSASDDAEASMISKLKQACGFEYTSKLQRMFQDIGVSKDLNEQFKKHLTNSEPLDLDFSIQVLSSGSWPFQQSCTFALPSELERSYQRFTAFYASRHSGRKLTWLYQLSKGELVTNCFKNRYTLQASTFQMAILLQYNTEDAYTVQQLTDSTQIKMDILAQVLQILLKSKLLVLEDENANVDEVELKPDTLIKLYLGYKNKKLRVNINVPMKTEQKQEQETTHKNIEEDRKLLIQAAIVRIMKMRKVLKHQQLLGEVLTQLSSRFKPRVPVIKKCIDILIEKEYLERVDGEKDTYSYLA
UniProt Q14790: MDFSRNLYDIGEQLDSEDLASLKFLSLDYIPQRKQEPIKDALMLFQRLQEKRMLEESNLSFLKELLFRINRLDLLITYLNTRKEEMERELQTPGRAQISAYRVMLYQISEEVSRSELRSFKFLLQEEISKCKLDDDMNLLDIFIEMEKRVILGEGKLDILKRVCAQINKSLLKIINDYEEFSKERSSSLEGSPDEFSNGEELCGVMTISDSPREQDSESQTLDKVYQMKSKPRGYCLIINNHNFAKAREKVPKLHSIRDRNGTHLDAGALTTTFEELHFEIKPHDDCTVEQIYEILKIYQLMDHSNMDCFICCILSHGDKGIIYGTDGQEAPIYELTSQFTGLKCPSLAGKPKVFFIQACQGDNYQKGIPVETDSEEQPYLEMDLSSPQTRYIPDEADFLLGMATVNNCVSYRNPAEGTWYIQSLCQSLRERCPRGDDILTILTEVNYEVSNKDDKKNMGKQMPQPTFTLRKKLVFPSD
UniProt Q13158: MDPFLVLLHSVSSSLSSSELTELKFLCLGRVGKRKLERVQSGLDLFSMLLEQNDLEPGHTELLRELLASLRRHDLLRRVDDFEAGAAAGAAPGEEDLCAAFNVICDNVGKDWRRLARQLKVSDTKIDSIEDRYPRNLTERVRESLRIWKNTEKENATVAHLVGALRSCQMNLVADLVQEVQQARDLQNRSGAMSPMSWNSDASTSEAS
UniProt Q13546: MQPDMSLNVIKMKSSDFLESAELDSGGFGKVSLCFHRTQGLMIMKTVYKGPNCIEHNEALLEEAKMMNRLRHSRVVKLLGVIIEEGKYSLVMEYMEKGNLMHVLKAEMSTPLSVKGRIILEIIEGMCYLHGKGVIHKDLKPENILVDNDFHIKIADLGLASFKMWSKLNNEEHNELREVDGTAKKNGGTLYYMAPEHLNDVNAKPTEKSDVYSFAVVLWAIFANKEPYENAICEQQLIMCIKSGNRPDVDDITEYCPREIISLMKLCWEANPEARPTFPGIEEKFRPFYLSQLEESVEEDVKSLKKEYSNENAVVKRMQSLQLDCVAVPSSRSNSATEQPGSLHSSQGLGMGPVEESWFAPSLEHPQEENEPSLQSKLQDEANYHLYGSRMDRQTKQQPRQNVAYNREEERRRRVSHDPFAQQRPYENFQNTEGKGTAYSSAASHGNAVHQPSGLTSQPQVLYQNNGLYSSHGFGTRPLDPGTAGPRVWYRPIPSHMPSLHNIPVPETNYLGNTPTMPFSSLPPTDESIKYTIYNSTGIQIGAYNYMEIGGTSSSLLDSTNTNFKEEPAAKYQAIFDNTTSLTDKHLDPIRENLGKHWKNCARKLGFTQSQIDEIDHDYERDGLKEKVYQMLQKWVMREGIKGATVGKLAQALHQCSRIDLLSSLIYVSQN
UniProt P63208: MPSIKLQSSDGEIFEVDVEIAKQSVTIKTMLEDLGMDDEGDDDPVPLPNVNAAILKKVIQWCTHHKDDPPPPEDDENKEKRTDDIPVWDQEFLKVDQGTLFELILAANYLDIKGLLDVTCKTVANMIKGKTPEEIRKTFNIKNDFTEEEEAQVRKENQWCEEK

Tests used:
[1] = biological target: TRAIL-R2 (human (endogenous in HCT116)) (UniProt O14763); experiment: co-IP; TRAIL-R2 DISC IP: anti-TRAIL-R2 agonist antibody AMG655 (Conatumumab) on Dynabeads added to live cells (receptor activated, up to 3 h); DISC IP buffer (20 mM Tris 7.4, 150 mM NaCl, 0.2% NP-40, 10% glycerol), 4 °C; blots; HCT116 (parental, BAX-null, p53-null, FADD or caspase-8 knockout), HT29, A549, HAP1; with or without zVAD-fmk, MG132, siRNAs
Myc-tagged Cullin-1 = Myc-tagged Cullin-1 (UniProt Q13616); experiment: co-IP; Fig. 6b: Cullin-1 pulled down from cells transfected with Cullin-1 with or without p43-FLIP(L); SDS-free RIPA buffer, 4 °C; blots for p43-FLIP(L) and endogenous Rbx1, Skp1, Skp2, TRAF2, caspase-8, FADD
FLAG-tagged procaspase-8 = FLAG-tagged procaspase-8 (UniProt Q14790); experiment: co-IP; cells transfected with FLIP, procaspase-8, FADD, Cullin-1 or Skp2 constructs (cell line not stated); SDS-free RIPA buffer (50 mM Tris pH 7.4, 150 mM NaCl, 5 mM EDTA, 1% Triton X-100), 4 °C; IP with FLAG (M2) magnetic beads, FLIP (H-202) antibody or Myc-Tag (9B11) antibody (which one in which panel is not stated); blots; with or without co-transfected Cullin-1 or procaspase-8
FADD (transfected) = FADD (transfected) (UniProt Q13158); experiment: as above
[2] = biological target: TRAIL-R2 (human (endogenous in HCT116)) (UniProt O14763); experiment: co-IP; TRAIL-R2 DISC IP (1 h) as a1, in RKO cells
[3] = biological target: TRAIL-R2 (human (endogenous in HCT116)) (UniProt O14763); experiment: co-IP; TRAIL-R2 DISC IP timecourse, HCT116 BAX-null cells, 0 min: unstimulated TRAIL-R2 (pre-ligand association complex, PLAC)

Substance | binding [1] | binding (Myc-tagged Cullin-1) | binding (FLAG-tagged procaspase-8) | binding (FADD (transfected)) | binding [2] | binding [3]
FADD (endogenous) (from UniProt Q13158 1-208) | binds | no binding |  |  |  | 
RIPK1 (endogenous) (from UniProt Q13546 1-671) | binds |  |  |  |  | 
Skp1 (endogenous) (from UniProt P63208 1-163) | binds |  | no binding | no binding | binds weakly | binds
caspase-8 (endogenous) (from UniProt Q14790 1-479) (enzyme) |  | no binding |  |  |  | 
